# Test results reported in PubChem BioAssay AID1347423 (Functional Genomics Laboratory (NCATS/FGL), 2020).
# Out of some 52,000 sequences screened, about 210 (0.4%) were called active.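 The calls were made as follows: active = gene whose silencing raises cell survival under the drug, median off-target-corrected z-score across its silencing RNAs 2 or more; inactive = the rest.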 The list shows a part of the results.
# Assay: Resistance to Poly (ADP-Ribose) Polymerase inhibitor: Gene Identification via Genome-wide siRNA Screen
# Conditions: mouse BRCA2 R2336H ES cells, olaparib, CellTiter-Glo viability; active compounds read high
# How it was run: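 Mouse BRCA2 R2336H ES cells were reverse-transfected with siRNA (20 nM final), treated at 48 h with 500 nM olaparib, and read by CellTiter-Glo after 72 h. Scores: MAD-based z per siRNA, median per gene, seed off-target correction.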
row,Sequence,z-score
1,CGUUUAAAGACUAGCAAGATT against Map3k7ip1,inactive: -0.656
2,GGGCAUAAUGGUUUUUAUGTT against Hist1h3c,inactive: -0.04
3,GGUGAGAGGCAGCUCAAGATT against D330023I21Rik,inactive: -0.0209
4,GGACUGCUUACCUAAAAGUTT against Insig1,inactive: -0.327
5,GGCCCAUAAGUCCUUCACCTT against AI449705,inactive: -0.171
6,GCUGGGUCUAAACUGUGCCTT against Cpsf2,inactive: 0.154
7,GACUGUUUUACAUUCCACATT against Klra21,inactive: -1.07
8,GCAUGCUUCGCGUAUGCAATT against Gpr151,inactive: 0.745
9,GGAGGACCAGUGCAUCUUUTT against 3230401K02Rik,inactive: 0.832
10,GCGAUUUCGUCUUCUGUUGTT against Wdr5b,inactive: -0.522
11,GGCCGUAAUAUCUCCUCCUTT against Krt1-13,inactive: 0.826
12,GGUCCACAUAUCUGACUGATT against AY314008,inactive: -1.01
13,GGCAACAAGGUCCUUUAAGTT against Mllt3,inactive: -0.295
14,GGGAAACUGGUACAGUACATT against Es1,inactive: -1.31
15,GCUUACCCUGACUCCAAUUTT against Dhx33,inactive: 0.714
16,CCACAAGAUUGUUUCAGAATT against A530050P17Rik,inactive: 1.62
17,GGAGUUGAUUGAGGUAAAGTT against Mettl3,inactive: 1.09
18,GCACAGACAUGAAGUACCGTT against Tcea3,inactive: 0.179
19,GCUGAGUUGACUCCUACUGTT against Mcpt1,inactive: 1.31
20,GCCCACUUUGUUUAGUUAATT against Lancl1,inactive: 0.147
21,CCAUGAGUUCAGAUGAUGATT against 4921521J11Rik,inactive: -2.93
22,GCUUAAUGCUAGGUUACAATT against Kng2,inactive: 0.072

# 19 neighbouring records already listed:
row,Sequence,z-score
2,GGGCAUAAUGGUUUUUAUGTT against Hist1h3c,inactive: -0.04
3,GGUGAGAGGCAGCUCAAGATT against D330023I21Rik,inactive: -0.0209
4,GGACUGCUUACCUAAAAGUTT against Insig1,inactive: -0.327
5,GGCCCAUAAGUCCUUCACCTT against AI449705,inactive: -0.171
6,GCUGGGUCUAAACUGUGCCTT against Cpsf2,inactive: 0.154
7,GACUGUUUUACAUUCCACATT against Klra21,inactive: -1.07
8,GCAUGCUUCGCGUAUGCAATT against Gpr151,inactive: 0.745
9,GGAGGACCAGUGCAUCUUUTT against 3230401K02Rik,inactive: 0.832
10,GCGAUUUCGUCUUCUGUUGTT against Wdr5b,inactive: -0.522
11,GGCCGUAAUAUCUCCUCCUTT against Krt1-13,inactive: 0.826
12,GGUCCACAUAUCUGACUGATT against AY314008,inactive: -1.01
13,GGCAACAAGGUCCUUUAAGTT against Mllt3,inactive: -0.295
14,GGGAAACUGGUACAGUACATT against Es1,inactive: -1.31
15,GCUUACCCUGACUCCAAUUTT against Dhx33,inactive: 0.714
16,CCACAAGAUUGUUUCAGAATT against A530050P17Rik,inactive: 1.62
17,GGAGUUGAUUGAGGUAAAGTT against Mettl3,inactive: 1.09
18,GCACAGACAUGAAGUACCGTT against Tcea3,inactive: 0.179
19,GCUGAGUUGACUCCUACUGTT against Mcpt1,inactive: 1.31
20,GCCCACUUUGUUUAGUUAATT against Lancl1,inactive: 0.147

# Additional entries follow.

row,Sequence,z-score
1,GCAGCUGUCCGUAUAUCUUTT against Uxt,inactive: -0.0551
2,GGCCUGUAUUCUGCUCUGUTT against Olfr341,inactive: -1.43
3,GGCAGAUCUAUUUAUGGUATT against 4921510H08Rik,inactive: 1.45
4,CGAAGAUUGCUUCACAGGCTT against 1700008E09Rik,inactive: 0.133
5,CCCUGGACUAAGGAUCACCTT against Cops5,inactive: -1.45
6,GGGUAUCAAGUAUAUCUCUTT against C530030I18Rik,inactive: 0.85
7,GGAGAAACGGAAGGAAAAGTT against Rpl13a,inactive: -3.42
8,GCAAUUGACCAGAUUUGUGTT against Npr1,inactive: 0.419
9,GCAUCGUGGAACCUAAAGATT against Rps3,inactive: -3.02
10,CCCAAUUAAUGAUCACCCATT against 2010305C02Rik,inactive: 1.84
11,GGUGCUGACUGGUCAGAUGTT against Lass1,inactive: 0.276
12,GCACAAUAAUAAUGACACUTT against AI597479,inactive: -0.493
13,CGAAGGCUUUUGAAUUCAATT against Gm78,inactive: 1.03
14,CCUCACCUAUGGUACUUUCTT against MGI:3576664,inactive: -0.323
15,GGAGAAUUAGAAGUUUCUGTT against B930008I02Rik,inactive: 1.17
16,GCCAACGCACAUAAUAAAGTT against Grim19,inactive: 0.253
17,GGACUAAAUGGUCAAGAUUTT against Rbm8,inactive: -3.1
18,CGAAACGGAAGGUGGAGGUTT against Htatip,inactive: -0.764
19,GGCAUCCUGUUGAAACUGATT against AI854408,inactive: -0.949
20,GGGUUCAAGAUAUCAAGUATT against 4933434E20Rik,inactive: 0.755
21,GGAGUCAACUUGUGAGGGUTT against Lrp8,inactive: -0.166
22,CGACGGAGUCAGUUAAAACTT against Psmd12,inactive: -3.52

row,Sequence,z-score
1,GCUGCCUCCUUAGGUGUUATT against A930018P22Rik,inactive: 1.33
2,GGGAGGAUAUUUUUUUGAATT against 9930013L23Rik,inactive: -0.438
3,GCAGUGUGAUGGGACUGUATT against Aga,inactive: -0.434
4,GCUGGUCUUUCAAGUCAAGTT against Stat5b,inactive: 2.97
5,GGUUACUAUGUGAAGAUUUTT against C130068O12Rik,inactive: 0.0787
6,CCAAGGGUUAAGUCUUCAUTT against Zranb1,inactive: 0.899
7,GGUGAUAAAGGGCAAAUGATT against 0610009I22Rik,inactive: -0.634
8,GGAAGAAGCAGAAGAACAUTT against Rpl12,inactive: -3.1
9,GCUGAUUAAUGAAGAAGCUTT against Kpna6,inactive: -0.422
10,CCUUCAAAUGUGGGAGUCCTT against 2310004L02Rik,inactive: -0.945
11,GGUGAUGCGCCUGAAGGAUTT against Ntng2,inactive: -0.669
12,GGUCAACCAGAAACUUUACTT against Acvr1,inactive: -0.868
13,GGAAAGAAACUUUCUCUUUTT against Cdkn2d,inactive: -0.057
14,GGUUGUGGCUGCUACUAUUTT against Pira1,inactive: 0.276
15,CGAUACCUUCGCCAAAAAGTT against Tbc1d1,inactive: -0.582
16,GGGCUCCAAUUUGCUACCATT against Grp,inactive: 2.36
17,GGAUGAAGAUGCUGUCAGCTT against Arhgef3,inactive: -1.11
18,GGCAGAGGCUGACUUCUACTT against Kctd11,inactive: 0.39
19,GCAAAUGUCUCUUCAGUGATT against Olfr885,inactive: -0.338
20,CCGACCAUCUGUGGAAAUATT against E130306M17Rik,inactive: 1.03
21,GGCCCUCCUCAAGACUCAUTT against 2810417J12Rik,inactive: -0.307
22,GGGCCUAAAUGUGAAACACTT against Src,inactive: -0.87
